Experimental data reported in US20230287071A1.
Results are given in words; binding and its absence hold for the method and conditions named. A result given as binding can be weak or reduced; the word gives no strength.

molecular target: HLA-B*44:05 (human); experiment: UV peptide-exchange ELISA, yield grade

binding, binds:
LEHPFLVNLW [… (SEQ ID NO: 385)]
TELGLFGVW [… (SEQ ID NO: 400)]
NEAEWQEIL [… (SEQ ID NO: 374)]
EECDKAYSF [… (SEQ ID NO: 364)]
QESVHVASY [… (SEQ ID NO: 403)]
TESIGAQIY [… (SEQ ID NO: 391)]
GEPRKLLTQDW [… (SEQ ID NO: 418)]
TELEPGLTY [… (SEQ ID NO: 413)]
KEKVPGITI [… (SEQ ID NO: 368)]
EESFRCLPEW [… (SEQ ID NO: 417)]
LDGIPTAGW [… (SEQ ID NO: 384)]
AEGYLDLDGI [… (SEQ ID NO: 414)]
EECGKAFRVF [… (SEQ ID NO: 380)]
REDPIVYEI [… (SEQ ID NO: 373)]
IETSSEYFNF [… (SEQ ID NO: 402)]
GEVQENYKL [… (SEQ ID NO: 387)]
AERDLNVTI [… (SEQ ID NO: 411)]
AENRVGKMEA [… (SEQ ID NO: 379)]
EECGKAFKKF [… (SEQ ID NO: 366)]
SELSLLSLY [… (SEQ ID NO: 419)]
AEIIRYIF [AEIIRYIF (SEQ ID NO: 398)]
GETVVLKNM [… (SEQ ID NO: 406)]
AEREQVIKL [… (SEQ ID NO: 404)]
TENPKKFKI [… (SEQ ID NO: 29)]
QEAKPRATW [… (SEQ ID NO: 409)]
NEFRRKLTF [… (SEQ ID NO: 359)]
NEIGQELTGQEW [… (SEQ ID NO: 371)]
QEFPAHSL [QEFPAHSL (SEQ ID NO: 28)]
EEMERDLDMY [… (SEQ ID NO: 383)]
EESDYITHY [… (SEQ ID NO: 386)]
EEYKFPSLF [… (SEQ ID NO: 372)]
EEFCFSVRF [… (SEQ ID NO: 30)]
GEYNKHAQLW [… (SEQ ID NO: 390)]
VEIVTIPSL [… (SEQ ID NO: 388)]
EEAGFPLAY [… (SEQ ID NO: 415)]
TEFAVKLKI [… (SEQ ID NO: 367)]
MEFQNTQSY [… (SEQ ID NO: 407)]
QELFLQEVRM [… (SEQ ID NO: 378)]
QELMAFSFAGL [… (SEQ ID NO: 381)]
TEVSVLLLTF [… (SEQ ID NO: 392)]
SESDGIEQL [… (SEQ ID NO: 376)]
EECGKAFSVF [… (SEQ ID NO: 397)]
AELMDKPLTF [… (SEQ ID NO: 357)]
DEMENLLTY [… (SEQ ID NO: 360)]
IEYENQKRL [… (SEQ ID NO: 33)]
DELMRKESQW [… (SEQ ID NO: 416)]
YEHAFNSIVW [… (SEQ ID NO: 405)]
MELLFLDTF [… (SEQ ID NO: 396)]
EDASLMGLY [… (SEQ ID NO: 361)]
SELNPLALY [… (SEQ ID NO: 382)]
DEQRRQNVAY [… (SEQ ID NO: 389)]
VENIFHNF [VENIFHNF (SEQ ID NO: 401)]
EESFDSKFY [… (SEQ ID NO: 412)]
EECDKAFHF [… (SEQ ID NO: 363)]
IEQADWPEI [… (SEQ ID NO: 399)]
HEATFGEKRF [… (SEQ ID NO: 375)]
NESGKAFNY [… (SEQ ID NO: 365)]
KELEERMLHW [… (SEQ ID NO: 369)]
SEILRVTLY [… (SEQ ID NO: 394)]
TEFHGGLHY [… (SEQ ID NO: 358)]
AEPPILYSEY [… (SEQ ID NO: 34)]
AEDFVWAQW [… (SEQ ID NO: 395)]
TEDYSKQAL [… (SEQ ID NO: 421)]
EEVLLANALW [… (SEQ ID NO: 370)]
MESAKETRY [… (SEQ ID NO: 31)]
REYEYDLKW [… (SEQ ID NO: 32)]
SETILAVGL [… (SEQ ID NO: 393)]
RELEEEFYSL [… (SEQ ID NO: 410)]
AEDARGWTA [… (SEQ ID NO: 377)]
SEVEYINKY [… (SEQ ID NO: 362)]
